According to US10440955B2, “Methods comprising a biocidal polyamine” (Curza Global, LLC, priority 2013, dated 2019):

Tested on: A. baumannii biofilms
Test: EBEC, high number biofilms on PEEK membranes, 10^9 to 10^2 CFU/PEEK membrane in 24 hours
Type: cell-based, Acinetobacter baumannii
Conditions: against A. baumannii
Description: In addition to determining the MIC and the MBEC of polyamine compounds against planktonic bacteria and low number biofilms, our group wanted to determine the efficacy of polyamine compounds against high number biofilms. To do so, biofilms were grown on the surface of polyetheretherketone (PEEK) membranes using a membrane biofilm reactor. This reactor is similar to the CDC biofilm reactor, but rather than growing biofilms on coupon surfaces, the reactor was modified to hold PEEK membranes. In short, to grow biofilms within this system, 500 mL of brain heart infusion (BHI) broth were inoculated with 1 mL of a 0.5 McFarland. The reactor was placed on a hot plate set at 34° C. and the bacteria were grown under batch conditions for 24 hours. Following this protocol, biofilms typically grow to 10^9 CFU/PEEK membrane. […] A solution of 10% BHI was then flowed through the reactor at a rate of 6.94 mL/min for an additional 24 hours. PEEK membranes were then removed and placed into 2 mL of CAMHB that contained a desired concentration of polyamine compound or antibiotic. […]
In addition to determining the MIC and the MBEC of compounds against planktonic bacteria and low number biofilms, the efficacy of the compounds of the invention against high number biofilms is determined. […]

Row | Molecule | EBEC greater than the MIC (ratio)
1 | NCCCNCCCNCc1cc(CNCCCNCCCN)cc(-c2ccccc2)c1 [CZ-58, N^1,N^1′-([1,1′-biphenyl]-3,5-diylbis(methylene))bis(N^3-(3-ammoniopropyl)propane-1,3-diaminium) chloride] | ~13 ×
2 | polymyxin B [reference compound] | 1,000 ×
